The structures given here were assigned with low confidence; some may be wrong.
Biological target: P2X7 (UniProt Q99572)
Assay: P2X7 pKi of Table 1

The chains behind the UniProt entries cited, without tags or fusion partners.
UniProt Q99572, whole entry: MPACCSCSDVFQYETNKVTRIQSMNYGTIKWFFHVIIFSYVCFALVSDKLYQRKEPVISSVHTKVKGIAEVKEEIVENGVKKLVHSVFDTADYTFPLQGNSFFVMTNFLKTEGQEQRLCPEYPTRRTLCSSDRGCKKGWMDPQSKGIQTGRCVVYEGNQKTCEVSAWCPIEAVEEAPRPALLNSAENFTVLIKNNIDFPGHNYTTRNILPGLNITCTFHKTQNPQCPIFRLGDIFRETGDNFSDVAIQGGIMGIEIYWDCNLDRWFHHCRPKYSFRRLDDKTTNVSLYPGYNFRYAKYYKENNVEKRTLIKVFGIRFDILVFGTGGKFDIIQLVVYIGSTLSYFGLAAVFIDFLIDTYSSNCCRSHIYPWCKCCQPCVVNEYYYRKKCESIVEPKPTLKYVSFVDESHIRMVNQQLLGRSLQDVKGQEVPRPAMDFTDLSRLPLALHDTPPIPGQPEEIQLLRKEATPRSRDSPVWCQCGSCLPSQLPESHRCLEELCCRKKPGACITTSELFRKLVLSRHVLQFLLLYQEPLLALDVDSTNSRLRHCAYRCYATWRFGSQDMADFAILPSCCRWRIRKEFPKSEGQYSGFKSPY

SMILES: COc1cc(C)c(NC(=O)C2=CNC(=O)C[C@@H]2c2cccc(F)c2)cc1OC
- pKi: 6.803

SMILES: Cc1ccccc1CNC(=O)C1=CNC(=O)C[C@H]1c1ccc(F)cc1
- pKi: 5.975

Source: US8288552B2, “Dihydropyridone amidesas P2X7 modulators” (Roche Palo Alto LLC, priority 2008, dated 2012)
